Values of other authors, collected in patent US20240132910A1, “USE OF HISTIDINE RICH PEPTIDES AS A TRANSFECTION REAGENT FOR rAAV AND rBV PRODUCTION” (BioMarin Pharmaceutical Inc., priority 2021, published 2024).
Where two headings read alike, the source gives them in different places. Not every detail of the peptide structures is certain; ends, links or a residue may be inferred. Ends that are not written are not given here.

Conditions: cited from earlier work

KKALLALALHHLAHLALHLALALKKA [LAH4]
positive charge ratio (+/−) of cargo:peptide complex (LAH4 and a given plasmid): 3.6 | net charge (before endosomal acidification): +5 | net charge (more acidic pH along endocytotic pathway, histidines more protonated): +9
